At least one structure is not confirmed: it was looked up by name or label, or the drawing left a doubt.
System: anti-Dig antibody
Test: Multiplexed Mechanochemistry Assay (MMA): centrifugal force lifetime of the digoxigenin-antibody bond
Assay type: binding

C[C@]12CC[C@H](O)C[C@H]1CC[C@@H]1[C@@H]2C[C@@H](O)[C@]2(C)[C@@H](C3=CC(=O)OC3)CC[C@]12O [digoxigenin]
change of measured lifetime with increase in applied force (FIGS. 8 and 9): decreased progressively
zero force off-rate (fit through force lifetimes measured at different applied forces, estimated for zero force, FIG. 9): ~4 h

From patent US20180364225A1, “HIGH THROUGHPUT SCREENING OF SMALL MOLECULES” (President and Fellows of Harvard College, priority 2015, published 2018)
